Publication PMC7949165
Results are given in words; binding and its absence hold for the method and conditions named. Binding seen in cells or lysates may run through a third protein. Binding calls can cover weak binding; strength is not graded here.

Biological target: Low-density lipoprotein receptor-related protein-1 (LRP1) (mouse (endogenous in liver))
Experiment: co-IP; endogenous proteins of wild-type mouse liver lysate, precleared; antibodies against LRP1 or PIP5K1B cross-linked (BS3) to Protein-A Dynabeads, overnight at 4 °C, washed with PBS, eluted with 2X SDS buffer, western blot; nonspecific IgG as negative control

B1: phosphatidylinositol-4-phosphate 5-kinase-like 1 (PIP5KL1) (protein, UniProt Q6U7H8 1-395)
chain: MATPSLRSHEIPAHSQEAGNKSISSGSRRGLLWHLRARQSRVGLFEVGPGHELHRMTRMMQEGLWAATQVSKNNPPTGPTTQKDYLEVMTQVHEEGFELGTLAGPAFARLRKSIGLTEEDYQATLGPGDPYLQFFSTSKSKASFFLTHDQRFFVKTQRRHEVHVLLAHLPRYVEHLQQYPHSLLARLLGVYSLRVAQGKKKYFIIMQCIFYPTSRISERYDIKGCNISRWVDPAPEGSPLVLVLKDLNFQEKTMRLGAQRSWFLRQMELDTAFLREVNVLDYSLLVAIQFLHEDEKGIHHSVFSTFKSIQGVSKSKGTGDQNCRMLPDLPNALHILDGPDQRYFLGLVDMTTVYGFRKRLEHVWKMVRYPGQSVSTVSPAHYARRLCRWAEVHTE
With B1 the binding was “binds”.
